Where a name gives a salt, the structure may show the parent alone. Some of the results follow. Repeats in this data set agree poorly, so a single value says little.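 A first-round screen of about ten thousand compounds sought those raising reporter output, using human embryonic kidney cells briefly transfected with a plasmid carrying a Renilla luciferase gene driven by the HSV-TK promoter.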
System: HEK 293FT
Experiment: log relative Renilla luciferase luminescence (reporter expression vs reference, reference not stated) (log (base not stated)); higher = higher recombinant reporter expression
Conditions: 10 µM; time after transfection 48 h

SMILES | log
O=C1CCc2cc(OCCCCc3nnnn3C3CCCCC3)ccc2N1 [cilostazol] | 0.0308
CCS(=O)(=O)CCn1c([N+](=O)[O-])cnc1C [tinidazole] | 0.133
N#C[C@@H]1C[C@@H]2C[C@@H]2N1C(=O)[C@@H](N)C12CC3CC(CC(O)(C3)C1)C2 [saxagliptin] | -0.144
CCCCOc1cc(C(=O)NCCN(CC)CC)c2ccccc2n1 [dibucaine hydrochloride] | -0.0946
CC[C@H]1OC(=O)[C@H](C)C(=O)[C@H](C)[C@@H](O[C@@H]2O[C@H](C)C[C@H](N(C)C)[C@H]2O)[C@](C)(OC)C[C@@H](C)C(=O)[C@H](C)[C@H]2N(CCCCn3cnc(-c4cccnc4)c3)C(=O)O[C@]12C [telithromycin] | 0.0409
C[C@@]12C[C@@]3(O)O[C@@H](O1)[C@]1(COC(=O)c4ccccc4)[C@H]3C[C@@]12O[C@@H]1O[C@H](CO)[C@@H](O)[C@H](O)[C@H]1O [peoniflorin] | 0.0481
CCC1=C(C)CN(C(=O)NCCc2ccc(S(=O)(=O)NC(=O)N[C@H]3CC[C@H](C)CC3)cc2)C1=O [glimepiride] | 0.0405
Sc1nc2ccccc2s1 [2-mercaptobenzothiazole] | 0.0292
COc1ccc2cc1Oc1ccc(cc1)C[C@H]1c3cc(c(OC)cc3CCN1C)Oc1c(OC)c(OC)cc3c1[C@H](C2)N(C)CC3 [tetrandrine] | 0.0215
CC(=O)OCC(=O)[C@@]12N=C(C)O[C@@H]1C[C@H]1[C@@H]3CCC4=CC(=O)C=C[C@]4(C)[C@H]3[C@@H](O)C[C@@]12C [deflazacort] | -0.111
COc1ccc(C(=O)/C=C/c2ccccc2)cc1 [4'-methoxychalcone] | 0.0513
CC(C)CCC[C@@H](C)[C@H]1CC[C@H]2[C@@H]3C=CC4=CC(=O)CC[C@]4(C)[C@H]3CC[C@]12C [cholest-4,6-dien-3-one] | 0.0663
CNCCC(Oc1ccc(C(F)(F)F)cc1)c1ccccc1 (configuration not stated) [fluoxetine] | 0.21
Cc1nc2n(c(=O)c1CCN1CCC(c3noc4cc(F)ccc34)CC1)CCCC2 [risperidone] | 0.138
CC(=O)Nc1ccc(CC(=O)O)cc1 [actarit] | 0.00487
C=C1C(=O)O[C@@H]2C[C@@]3(C)CCC[C@H](C)C3=C[C@H]12 [helenine] | 0.0233
CCN1CC(CCN2CCOCC2)C(c2ccccc2)(c2ccccc2)C1=O (configuration not stated) [doxapram hydrochloride] | 0.00957
CCCCNC(=O)NS(=O)(=O)c1ccc(C)cc1 [tolbutamide] | 0.156
O=C(O)c1cc(-c2ccc(F)cc2F)ccc1O [diflunisal] | -0.0818
CC(=O)[C@H]1CC[C@H]2[C@@H]3C[C@H](C)C4=CC(=O)CC[C@]4(C)[C@H]3[C@@H](O)C[C@]12C [medrysone] | -0.107
CCOC(=O)OC(C)OC1=C(C(=O)Nc2ccccn2)N(C)S(=O)(=O)c2ccccc21 (configuration not stated) [ampiroxicam] | -0.0856
COC(=O)c1c(C)cc(O)cc1O [methyl orsellinate] | 0.0163
CCCCCCCCCCCCC[N+](C)(C)Cc1ccccc1 [benzalkonium chloride] | -1.41
O=S(=O)(O)CCS [mesna] | -0.0187

Retrieved one by one from the entries so far, 4 records:
SMILES | log
CC(=O)[C@H]1CC[C@H]2[C@@H]3C[C@H](C)C4=CC(=O)CC[C@]4(C)[C@H]3[C@@H](O)C[C@]12C [medrysone] | -0.107
CC(=O)Nc1ccc(CC(=O)O)cc1 [actarit] | 0.00487
Cc1nc2n(c(=O)c1CCN1CCC(c3noc4cc(F)ccc34)CC1)CCCC2 [risperidone] | 0.138
CCCCCCCCCCCCC[N+](C)(C)Cc1ccccc1 [benzalkonium chloride] | -1.41

The list continues:

SMILES | log
CCn1cc(C(=O)O)c(=O)c2cnc(N3CCCC3)nc21 [piromidic acid] | 0.069
CC(C)Nc1ncccn1 [isaxonine] | 0.0607
CC(C)(C)NC[C@H](O)c1ccc(O)c(CO)c1 [levalbuterol hydrochloride] | -0.213
COc1ccc(-c2cc(=O)c3c(O)cc(O[C@@H]4O[C@H](CO[C@@H]5O[C@@H](C)[C@H](O)[C@@H](O)[C@H]5O)[C@@H](O)[C@H](O)[C@H]4O)cc3o2)cc1O [diosmin] | 0.161
O=c1c2cc(O)c(O)cc2oc2cc(O)c([C@@H]3O[C@H](CO)[C@@H](O)[C@H](O)[C@H]3O)c(O)c12 [mangiferin] | 0.118
C/C=N/N(C)C=O [gyromitrin] | -0.0464
C=C1C[C@]23C[C@@]1(O)CC[C@H]2[C@@]12C=C[C@H](O)[C@@](C)(C(=O)O1)[C@H]2[C@@H]3C(=O)O [gibberellic acid] | 0.288
c1ccc2[nH]c(-c3cscn3)nc2c1 [thiabendazole] | 0.148
OC[C@@H](O)[C@@H](O[C@@H]1O[C@H](CO)[C@H](O)[C@H](O)[C@H]1O)[C@H](O)[C@@H](O)CO [lacitol] | 0.089
OC[C@@H](O)[C@@H](O[C@@H]1O[C@H](CO)[C@H](O)[C@H](O)[C@H]1O)[C@H](O)[C@@H](O)CO [d-lactitol monohydrate] | -0.0616
CN1[C@@H](CC(=O)c2ccccc2)CCC[C@H]1C[C@H](O)c1ccccc1 [lobeline hydrochloride] | 0.0595
CC1(C)[C@H]2CC[C@]1(CS(=O)(=O)O)C(=O)C2=Cc1ccc(C=C2C(=O)[C@@]3(CS(=O)(=O)O)CC[C@@H]2C3(C)C)cc1 [ecamsule triethanolamine] | -0.0915
COc1ccc(C(=O)c2ccc(C)cc2)c(O)c1 [mexeneone] | -0.00752
NC(=O)NC(=O)Cc1ccccc1 [phenacemide] | -0.0225
CC(C)[C@H](NC(=O)[C@H](CC(=O)O)NC(=O)[C@H](CCCCN)NC(=O)[C@@H](N)CCCN=C(N)N)C(=O)N[C@@H](Cc1ccc(O)cc1)C(=O)O [thymopentin] | 0.0214
C[C@]12CC[C@@H]3c4ccc(O)cc4CC[C@H]3[C@@H]1CCC2=O [estrone] | 0.061
CN(C)[C@@H]1C(O)=C(C(N)=O)C(=O)[C@@]2(O)C(O)=C3C(=O)c4c(O)ccc(Cl)c4[C@@](C)(O)[C@H]3C[C@@H]12 [chlortetracycline hydrochloride] | -0.0645
O=C1OC2(c3ccc(O)cc3Oc3cc(O)ccc32)c2ccccc21 [fluorescein] | 0.0764
CC(=O)OCC1=C(C(=O)O)N2C(=O)[C@@H](NC(=O)CSc3ccncc3)[C@H]2SC1 [cephapirin sodium] | -0.0711
COc1cnc(NS(=O)(=O)c2ccc(N)cc2)nc1 [sulfameter] | -0.034
O=C(O)CCC(=O)Nc1ccc(S(=O)(=O)Nc2nccs2)cc1 [succinylsulfathiazole] | 0.00408
Cc1cccc(CN2CCN(C(c3ccccc3)c3ccc(Cl)cc3)CC2)c1 (configuration not stated) [meclizine hydrochloride] | -0.0613
COc1ccccc1O [guaiacol] | 0.0119
O=NN(CCCl)C(=O)NC1CCCCC1 [lomustine] | 0.0284

SMILES | log
CCOC(=O)C1=C[C@]2(CC)CCCN3CCc4c(n1c1ccccc41)[C@@H]32 [vinpocetine] | -0.214
COc1ccc2c(c1)OCC(Cc1ccc(OC)c(OC(C)=O)c1)C2=O (configuration not stated) [deoxysappanone b 7,3'-dimethyl ether acetate] | 0.0757
OCCOCCN1CCN(C(c2ccccc2)c2ccc(Cl)cc2)CC1 (configuration not stated) [hydroxyzine pamoate] | 0.177
CC(=O)O[C@H]1C[C@@H](OC(C)=O)C(C)(C)C2C[C@@H](O)[C@]3(C)C(CC[C@@]4(C)[C@H](c5ccoc5)OC(=O)[C@H]5O[C@]543)[C@]21C (some centres not stated) [7-deacetylkhivorin] | 0.115
Cc1cc(-n2c(=O)[nH]c(=O)n(C)c2=O)ccc1Oc1ccc(SC(F)(F)F)cc1 [toltrazuril] | 0.116
Cc1ccccc1N1C(=O)c2cc(S(N)(=O)=O)c(Cl)cc2NC1C (configuration not stated) [metolazone] | -0.00861
CO[C@H]1[C@H](O)[C@@H](O)[C@H](O)[C@H](O)[C@H]1O [quebrachitol] | 0.0492
COc1ccc(-c2coc3c(OC)c(OC)cc(O)c3c2=O)cc1 [isotectorigenin, 7-methyl ether] | -0.0306
CC(C)COC(=O)c1ccc(N)cc1 [isobutamben] | -0.0767
COc1ccc(C(=O)c2ccc(O)cc2)c(O)c1O [2,3,4'-trihydroxy-4-methoxybenzophenone] | 0.0454
COc1ccc2[nH]c([S+]([O-])Cc3ncc(C)c(OC)c3C)nc2c1 (configuration not stated) [omeprazole] | 0.101
CCCCC(CC)CN=C(N)N=C(N)NCCCCCCNC(N)=NC(N)=NCC(CC)CCCC (configuration not stated) [alexidine hydrochloride] | -1.32
CC(=O)Nc1ccc(O)cc1 [acetaminophen] | -0.00664
CC(=O)Oc1c(C)c(C)c2c(c1C)CCC(C)(CCCC(C)CCCC(C)CCCC(C)C)O2 (stereo not drawn) [alpha-tochopheryl acetate] | -0.0684
C=CCSCC(N)C(=O)O (stereo not drawn) [l-deoxyalliin] | -0.0297
O=S(=O)(O)CCCS(=O)(=O)O [eprodisate disodium] | 0.125
CO/N=C(\C(=O)N[C@@H]1C(=O)N2C(C(=O)O)=C(C[N+]3(C)CCCC3)CS[C@H]12)c1csc(N)n1 [cefepime hydrochloride] | 0.0629
CCOC(=O)[C@H](CCc1ccccc1)N[C@@H](C)C(=O)N1CCC[C@H]1C(=O)O [enalapril maleate] | 0.294
CC(=O)N[C@@H](Cc1ccccc1)C(=O)O [acetylphenylalanine] | -0.102
Cn1nnnc1SCC1=C(C(=O)O)N2C(=O)[C@@H](NC(=O)[C@H](OC=O)c3ccccc3)[C@H]2SC1 [cefamandole nafate] | 0.211
OCC(O)C(O)C(O)C(O)C(O)CO (configuration not stated) [perseitol] | 0.172
CC(C)=CCC/C(C)=C/CC/C(C)=C/CC/C(C)=C/CC1=C(C)C(=O)c2ccccc2C1=O [menaquinone-4] | 0.0307
COc1cc(O)c(C)c(O)c1 [2,6-dihydroxy-4-methoxytoluene] | 0.0157
C[C@]12CC[C@@H]3c4ccc(O)cc4CC[C@H]3[C@@H]1C[C@H](O)[C@@H]2O [epiestriol] | -0.163
